Experimental data published in patent US5910570A, “Cloned DNA encoding a UDP-GalNAc: polypeptide N-acetylgalactosaminy-ltransferase” (Pharmacia & Upjohn Company, priority 1997, dated 1999).
At least one peptide structure holds a part that was inferred or is arguable (an end, a ring closure or a residue). Residues, ends and D or L forms follow the SMILES beside them.

Biological target: T1, bovine colostrum GalNAc-transferase (Bos taurus, UniProt Q07537)
T1 sequence (Q07537 41-559 limits assumed): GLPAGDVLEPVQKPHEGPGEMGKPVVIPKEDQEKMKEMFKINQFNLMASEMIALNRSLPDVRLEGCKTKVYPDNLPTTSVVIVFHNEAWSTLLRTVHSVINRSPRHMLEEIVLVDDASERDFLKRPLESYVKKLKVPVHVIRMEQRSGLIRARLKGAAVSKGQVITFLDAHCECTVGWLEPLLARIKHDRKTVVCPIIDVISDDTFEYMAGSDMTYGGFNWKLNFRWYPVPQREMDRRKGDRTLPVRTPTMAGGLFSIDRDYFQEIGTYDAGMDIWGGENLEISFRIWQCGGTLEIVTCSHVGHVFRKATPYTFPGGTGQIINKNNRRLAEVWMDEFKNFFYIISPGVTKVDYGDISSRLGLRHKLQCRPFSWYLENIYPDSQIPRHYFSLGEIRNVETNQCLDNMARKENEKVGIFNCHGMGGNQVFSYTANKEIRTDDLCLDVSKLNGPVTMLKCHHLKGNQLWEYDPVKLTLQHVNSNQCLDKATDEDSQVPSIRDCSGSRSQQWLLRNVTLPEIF
Assay: Comparison of synthetic peptides as acceptors, low levels of transfer (Biogel P-2 assay)
Format: biochemical
Design: from tissue; host or cells: bovine colostrum

In the case of `N=C(N)NCCC[C@H](N)C(=O)N[C@@H](CO)C(=O)N1CCC[C@H]1C(=O)N1CCC[C@H]1C(=O)N1CCC[C@H]1C(=O)O` [RSPPP, Arg-Ser-Pro-Pro-Pro] (H-RSPPP-OH), the “rate of glycosylation, slower than PPAdSSdSAPG” value is reported as “three times slower” and the Relative rate ([…]) is reported as 1/751.
